Results published in US20260242487A1.
These are yes or no findings as the source states them, for the method shown. Some binding calls cover weakened binding; strength is not graded here.

Protein sequences, listed by entry. Tags and fused reporters are not part of them. Lines headed by an entry give the natural chain unless they say otherwise; changes in a name come on top. Chains listed by the source or under a name are the forms on record and can include a tag or linker.
human FGFR2b expressed on cells (hFGFR2b-expressing CHOK1 cells; Ba/F3 cells expressing full-length human FGFR2b) (P21802, form named): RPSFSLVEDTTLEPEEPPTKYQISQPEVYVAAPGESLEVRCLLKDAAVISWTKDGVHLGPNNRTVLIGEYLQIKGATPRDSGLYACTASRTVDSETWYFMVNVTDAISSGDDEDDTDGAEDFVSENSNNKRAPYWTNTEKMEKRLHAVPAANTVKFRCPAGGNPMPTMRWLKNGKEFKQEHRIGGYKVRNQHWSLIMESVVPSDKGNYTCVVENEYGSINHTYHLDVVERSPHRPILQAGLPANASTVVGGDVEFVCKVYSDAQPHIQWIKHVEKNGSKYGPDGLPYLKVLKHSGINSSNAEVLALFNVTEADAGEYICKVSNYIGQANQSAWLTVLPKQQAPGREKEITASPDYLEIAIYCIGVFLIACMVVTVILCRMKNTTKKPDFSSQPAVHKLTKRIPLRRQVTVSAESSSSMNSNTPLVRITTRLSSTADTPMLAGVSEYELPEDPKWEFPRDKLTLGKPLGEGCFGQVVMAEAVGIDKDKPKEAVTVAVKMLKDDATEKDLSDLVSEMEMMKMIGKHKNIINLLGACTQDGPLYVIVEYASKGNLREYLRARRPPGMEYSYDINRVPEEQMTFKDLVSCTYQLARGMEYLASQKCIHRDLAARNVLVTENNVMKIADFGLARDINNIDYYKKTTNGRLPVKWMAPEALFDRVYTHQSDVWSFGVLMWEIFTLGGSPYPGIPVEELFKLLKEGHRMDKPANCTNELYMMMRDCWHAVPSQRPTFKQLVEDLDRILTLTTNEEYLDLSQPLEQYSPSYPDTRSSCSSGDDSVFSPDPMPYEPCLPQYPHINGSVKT
hFGFR2b-Fc (Kactus, Catalog #FGR-HM2BB) (P21802, form named): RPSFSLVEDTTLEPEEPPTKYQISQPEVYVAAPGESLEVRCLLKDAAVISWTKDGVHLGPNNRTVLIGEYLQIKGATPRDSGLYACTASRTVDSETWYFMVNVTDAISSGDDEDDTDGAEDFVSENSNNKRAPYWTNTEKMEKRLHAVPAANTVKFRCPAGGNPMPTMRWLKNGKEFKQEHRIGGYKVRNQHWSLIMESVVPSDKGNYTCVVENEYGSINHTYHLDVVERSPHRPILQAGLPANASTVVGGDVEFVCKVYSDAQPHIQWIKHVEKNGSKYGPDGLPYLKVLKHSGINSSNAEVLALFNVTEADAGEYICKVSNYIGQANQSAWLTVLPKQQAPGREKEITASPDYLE

Experiments:
[1] = molecular target: human FGFR2b expressed on cells (hFGFR2b-expressing CHOK1 cells; Ba/F3 cells expressing full-length human FGFR2b) (human) (UniProt P21802); test: flow cytometry on CHOK1 cells expressing hFGFR2b, detection with APC anti-human IgG Fc
[2] = molecular target: human FGFR2b expressed on cells (hFGFR2b-expressing CHOK1 cells; Ba/F3 cells expressing full-length human FGFR2b) (human) (UniProt P21802); test: flow cytometry on cells expressing human FGFR2b
[3] = molecular target: human FGFR2b expressed on cells (hFGFR2b-expressing CHOK1 cells; Ba/F3 cells expressing full-length human FGFR2b) (human) (UniProt P21802); test: flow cytometry on CHOK1 cells expressing hFGFR2b
FGFR2b-his (human) = FGFR2b-his (human) (UniProt P21802); test: SPR, antibody immobilised on the chip, FGFR2b-his flowed over it [upper panel]
[4] = molecular target: hFGFR2b-Fc (Kactus, Catalog #FGR-HM2BB) (human) (UniProt P21802); test: competition ELISA on coated hFGFR2b-Fc; blocked ligand biotin-FGF10 (5 nM), detection with streptavidin-HRP
[5] = molecular target: hFGFR2b-Fc (Kactus, Catalog #FGR-HM2BB) (human) (UniProt P21802); test: competition ELISA on coated hFGFR2b-Fc; blocked ligand human FGF7-his (20 nM), detection with HRP anti-6xHis

Measured: binding

B1: HC18 (antibody, human IgG1, kappa, V domains shown)
VH: EVQLQQSGTVLARPGASVKMSCKTSGYTFTSYWMHWVKQRPGQGLEWIGSIYPENSDTSYNQKFKGKAKLTAVTSASTAYMDLSSLTNEDSAVYYCSIYHGYDGDYWGQGTTLTVSS
VL: QIVLTQSPAIMSASPGEKVTITCSASSSVSYMYWFQQKPGTSPKLWIYSTSNLASGVPARFSGSGSGTSYSLTISRMEAEDAATYYCQQRSSYPYTFGGGTKLEIKR
binds: all assays above
